The test deals with UNC-104::GFP (C. elegans) (UniProt P23678). Nature of the test: co-IP.

Chains of the proteins cited; added tags and fusions are not shown.
UniProt P23678: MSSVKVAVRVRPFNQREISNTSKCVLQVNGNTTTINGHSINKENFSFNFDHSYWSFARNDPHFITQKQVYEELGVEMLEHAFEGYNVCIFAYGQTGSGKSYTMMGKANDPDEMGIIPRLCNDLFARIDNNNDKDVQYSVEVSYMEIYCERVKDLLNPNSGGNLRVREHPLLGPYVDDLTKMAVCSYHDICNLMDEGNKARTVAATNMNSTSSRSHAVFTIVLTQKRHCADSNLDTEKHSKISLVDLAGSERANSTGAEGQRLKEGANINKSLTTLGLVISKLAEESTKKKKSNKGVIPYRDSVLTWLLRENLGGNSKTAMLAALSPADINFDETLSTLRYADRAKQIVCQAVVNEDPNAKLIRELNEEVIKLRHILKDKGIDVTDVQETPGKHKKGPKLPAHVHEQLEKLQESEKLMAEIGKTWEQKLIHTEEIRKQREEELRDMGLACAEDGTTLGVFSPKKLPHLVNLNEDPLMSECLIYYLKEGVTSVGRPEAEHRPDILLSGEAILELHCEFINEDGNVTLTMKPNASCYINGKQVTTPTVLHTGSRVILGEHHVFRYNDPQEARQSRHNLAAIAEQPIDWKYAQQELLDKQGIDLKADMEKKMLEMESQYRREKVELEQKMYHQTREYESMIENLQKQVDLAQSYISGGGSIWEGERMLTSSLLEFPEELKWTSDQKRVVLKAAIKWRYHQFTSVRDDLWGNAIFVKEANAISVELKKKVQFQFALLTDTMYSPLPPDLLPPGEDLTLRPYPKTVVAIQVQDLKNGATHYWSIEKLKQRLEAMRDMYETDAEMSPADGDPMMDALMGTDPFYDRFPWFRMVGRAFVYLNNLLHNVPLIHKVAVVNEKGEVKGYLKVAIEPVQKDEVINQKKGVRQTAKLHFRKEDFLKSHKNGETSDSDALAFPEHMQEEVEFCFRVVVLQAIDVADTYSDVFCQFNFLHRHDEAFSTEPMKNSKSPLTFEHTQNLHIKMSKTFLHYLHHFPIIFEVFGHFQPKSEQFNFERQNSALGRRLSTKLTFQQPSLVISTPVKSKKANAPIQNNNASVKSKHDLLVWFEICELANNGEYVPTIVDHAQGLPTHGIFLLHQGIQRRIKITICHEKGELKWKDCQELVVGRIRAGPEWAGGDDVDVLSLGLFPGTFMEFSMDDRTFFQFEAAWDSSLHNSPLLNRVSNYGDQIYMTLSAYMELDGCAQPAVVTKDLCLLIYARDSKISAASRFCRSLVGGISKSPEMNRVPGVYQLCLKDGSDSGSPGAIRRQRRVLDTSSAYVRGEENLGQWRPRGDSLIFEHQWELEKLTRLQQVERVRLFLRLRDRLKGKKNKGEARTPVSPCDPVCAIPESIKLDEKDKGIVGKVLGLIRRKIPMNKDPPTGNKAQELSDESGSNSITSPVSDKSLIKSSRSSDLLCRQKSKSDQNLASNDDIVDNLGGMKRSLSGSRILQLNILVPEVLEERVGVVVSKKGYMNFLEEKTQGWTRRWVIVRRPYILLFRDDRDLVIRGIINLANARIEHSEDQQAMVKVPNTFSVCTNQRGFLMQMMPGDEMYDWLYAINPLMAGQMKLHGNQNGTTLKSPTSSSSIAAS
UniProt Q21049: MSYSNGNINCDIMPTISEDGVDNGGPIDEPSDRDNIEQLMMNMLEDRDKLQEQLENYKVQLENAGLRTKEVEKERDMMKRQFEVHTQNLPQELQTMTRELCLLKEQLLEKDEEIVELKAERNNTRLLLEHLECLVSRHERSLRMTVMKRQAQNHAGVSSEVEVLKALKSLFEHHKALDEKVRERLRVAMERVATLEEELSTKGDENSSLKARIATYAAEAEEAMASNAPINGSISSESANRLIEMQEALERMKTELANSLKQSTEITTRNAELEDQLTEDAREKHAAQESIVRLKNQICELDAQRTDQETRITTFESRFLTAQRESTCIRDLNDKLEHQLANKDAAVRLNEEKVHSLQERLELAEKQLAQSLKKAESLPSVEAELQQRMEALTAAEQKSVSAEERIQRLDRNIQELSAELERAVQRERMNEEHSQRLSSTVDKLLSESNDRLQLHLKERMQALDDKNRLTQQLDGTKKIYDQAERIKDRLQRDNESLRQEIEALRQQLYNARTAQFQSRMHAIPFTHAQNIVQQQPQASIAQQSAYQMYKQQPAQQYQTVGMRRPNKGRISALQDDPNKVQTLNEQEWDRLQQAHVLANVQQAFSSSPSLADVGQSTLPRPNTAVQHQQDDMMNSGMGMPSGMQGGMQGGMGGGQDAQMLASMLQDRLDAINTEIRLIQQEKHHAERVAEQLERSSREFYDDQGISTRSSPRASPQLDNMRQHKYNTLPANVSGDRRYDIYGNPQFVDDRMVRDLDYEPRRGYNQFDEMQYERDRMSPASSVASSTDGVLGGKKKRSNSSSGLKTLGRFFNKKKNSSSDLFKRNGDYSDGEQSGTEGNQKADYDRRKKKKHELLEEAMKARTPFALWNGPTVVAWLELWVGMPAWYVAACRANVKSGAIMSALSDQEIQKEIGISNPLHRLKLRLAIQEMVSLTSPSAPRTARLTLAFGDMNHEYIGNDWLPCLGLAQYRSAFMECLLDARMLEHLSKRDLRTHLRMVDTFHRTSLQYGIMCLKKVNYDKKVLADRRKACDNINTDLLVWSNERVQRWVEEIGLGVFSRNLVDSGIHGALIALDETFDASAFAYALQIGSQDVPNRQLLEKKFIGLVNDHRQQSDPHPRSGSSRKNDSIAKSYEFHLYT

Results are given in words; binding and its absence hold for the method and conditions named. In cells and extracts the contact can be indirect. Some entries that bind do so weakly or less than the wild type.

For the substance SYD-2 (from UniProt Q21049 1-1139), the binding entry was “binds”.

The values are drawn from doi:10.1101/723288.
